# According to the supplement of paper PMC12823440, “Inhibitors supercharge kinase turnover through native proteolytic circuits” (Nature, 2025):
# By UniProt entry, the sequences of proteins in these tests, tags left out.
# UniProt Q05397, whole entry, looked up: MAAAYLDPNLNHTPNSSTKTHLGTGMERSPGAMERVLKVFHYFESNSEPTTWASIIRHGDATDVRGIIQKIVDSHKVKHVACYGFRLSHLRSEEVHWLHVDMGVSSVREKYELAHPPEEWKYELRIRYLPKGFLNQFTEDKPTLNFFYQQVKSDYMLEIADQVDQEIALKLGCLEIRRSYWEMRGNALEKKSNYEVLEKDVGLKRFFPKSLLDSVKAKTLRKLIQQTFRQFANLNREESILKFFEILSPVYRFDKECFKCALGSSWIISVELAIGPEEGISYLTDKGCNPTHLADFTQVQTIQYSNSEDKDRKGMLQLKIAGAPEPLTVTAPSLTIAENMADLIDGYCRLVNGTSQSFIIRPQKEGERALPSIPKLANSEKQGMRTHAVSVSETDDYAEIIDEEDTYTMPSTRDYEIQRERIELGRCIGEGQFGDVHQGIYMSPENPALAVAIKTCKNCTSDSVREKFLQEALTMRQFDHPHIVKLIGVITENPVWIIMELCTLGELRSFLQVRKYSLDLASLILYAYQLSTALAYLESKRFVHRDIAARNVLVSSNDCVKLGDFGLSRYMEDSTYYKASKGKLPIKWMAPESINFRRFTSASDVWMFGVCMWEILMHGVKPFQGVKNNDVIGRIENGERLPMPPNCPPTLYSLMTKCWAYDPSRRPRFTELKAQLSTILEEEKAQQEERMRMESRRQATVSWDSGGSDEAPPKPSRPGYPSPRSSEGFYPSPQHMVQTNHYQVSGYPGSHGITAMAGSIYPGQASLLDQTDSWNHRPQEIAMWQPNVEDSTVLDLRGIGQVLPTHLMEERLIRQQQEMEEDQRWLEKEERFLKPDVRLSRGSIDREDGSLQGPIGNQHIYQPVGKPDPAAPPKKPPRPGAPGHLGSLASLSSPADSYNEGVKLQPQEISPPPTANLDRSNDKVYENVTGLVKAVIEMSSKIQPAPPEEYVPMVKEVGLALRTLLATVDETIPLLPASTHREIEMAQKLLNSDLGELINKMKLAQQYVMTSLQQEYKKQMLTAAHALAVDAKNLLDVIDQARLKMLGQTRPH
# Structures can show the parent of a compound that is named as a salt. The list shows a part of the results. Hit calls seldom repeat between salt and free forms of one compound.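 In K562 cells expressing nanoluciferase-fused kinases, luminescence was recorded at 4 h intervals between 2 and 18 h, normalized as percent of control with DMSO at 100% and a positive control at 0%. A significant (2 sigma) signal drop marks a time point as decreased. The authors' rule for a hit is not shown and takes in more than the number of time points.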
# Target: PRKCA (UniProt P17252)
# Test: number of time points (of 5) at which kinase-Nluc abundance scored as decreased, DMSO-normalised (count); higher = more persistent destabilization
# Conditions: K562; 2-18 h
row,SMILES,number of time points
1,Nc1ncnc2c1ncn2[C@@H]1O[C@@H]2COP(O)(=S)O[C@H]2[C@H]1O (stereo not given in full) [Sp-cAMPS (sodium salt)] (10 µM),0
2,CN(C)C(=O)c1ccc(Cn2c(C(=O)O)cc3c(Br)cc(Sc4ccc(Cl)c(Cl)c4)cc32)cc1 [Rheb inhibitor NR1] (10 µM),0
3,C/C=C(/C)C(=O)O[C@H]1[C@@H]2[C@H](C)C(=O)O[C@@H]2C[C@@H](C)[C@@H]2C=CC(=O)[C@]21C [Brevilin A] (2.5 µM),0

# Target: PTK2 (UniProt Q05397)
# Test: as above
# Conditions: K562; 2-18 h
row,SMILES,number of time points
1,C[C@H]1CC[C@]2(NC1)O[C@H]1C[C@H]3[C@@H]4CC[C@H]5C[C@@H](O[C@@H]6O[C@H](CO)[C@H](O[C@@H]7O[C@H](CO)[C@@H](O)[C@H](O[C@@H]8OC[C@@H](O)[C@H](O)[C@H]8O)[C@H]7O[C@@H]7O[C@H](CO)[C@@H](O)[C@H](O)[C@H]7O)[C@H](O)[C@H]6O)CC[C@]5(C)[C@H]4CC[C@]3(C)[C@H]1[C@@H]2C [Tomatine] (2.5 µM),0
2,CCCCNc1nc(N)c2[nH]c(=O)n(Cc3ccc(C)nc3)c2n1 (10 µM),1
3,C[C@H](CCC(=O)O)C[C@H](C)C[C@H](C)C(=O)/C=C(\O)[C@H](C)C[C@H](C)C/C=C/[C@@H](C)[C@@H](O)[C@@H](C)[C@@H](O)C[C@@H]1CC[C@@](C)([C@H]2CC[C@@](C)([C@@H](C)O)O2)O1 [Ionomycin (calcium)] (2.5 µM),1
4,CCOC(=O)c1c(/C(C#N)=C\N)c2ccc(Cl)c(Cl)c2n1C (10 µM),0
5,CC(=O)OC(C)(C)/C=C/C(=O)[C@](C)(O)[C@H]1[C@H](O)C[C@@]2(C)[C@@H]3CC=C4[C@@H](C=C(O)C(=O)C4(C)C)[C@]3(C)C(=O)C[C@]12C [Cucurbitacin E] (2.5 µM),2
6,O=C1C=CC[C@@H]2[C@H]3CCCN4CCC[C@@H](CN12)[C@@H]34 [Sophocarpine (monohydrate)] (2.5 µM),0
7,C=CC(=O)Nc1ccc2[nH]c(=O)n(C3CCN(Cc4ccc(-c5nc6cc[nH]c(=O)c6cc5-c5ccccc5)cc4)CC3)c2c1 [Borussertib] (10 µM),0
8,O=C1C=CC[C@@H]2[C@H]3CCCN4CCC[C@@H](CN12)[C@@H]34 [Sophocarpine] (10 µM),0
9,C=CC(=O)N[C@H]1C=C(C)c2c(-c3cnc4ccccc4c3)c3c(N)ncnc3n2C1 (10 µM),0
10,Cn1cc(C2=C(c3cn(C4CCN(Cc5ccccn5)CC4)c4ccccc34)C(=O)NC2=O)c2ccccc21 [Enzastaurin] (10 µM),0
11,CCN1CCN(C(=O)Cc2ccc(Nc3ncc(F)c(Nc4ccc(C(=O)Nc5ccccc5Cl)cc4)n3)cc2)CC1 (2.5 µM),0
12,C[C@H]1CC[C@]2(NC1)O[C@H]1C[C@H]3[C@@H]4CC[C@H]5C[C@@H](O)CC[C@]5(C)[C@H]4CC[C@]3(C)[C@H]1[C@@H]2C [Tomatidine (hydrochloride)] (10 µM),0
13,O=[N+]([O-])/C=C/c1ccc2c(c1)OCO2 (2.5 µM),0
14,NCCc1cn(S(=O)(=O)c2c(Cl)nc3sccn23)c2ccccc12 (10 µM),0
15,COc1ccc(N(C(=O)Oc2c(C)cccc2C)c2ccnc(Nc3ccc(N4CCN(C)CC4)cc3)n2)c(OC)c1 (2.5 µM),0
16,Cc1ccccc1-n1c(Cn2cnc3c(N)ncnc32)nc2cccc(C)c2c1=O (10 µM),0
17,Cc1[nH]ncc1-c1cc2nc([C@H]3CC4CCN3CC4)[nH]c(=O)c2s1 [(R)-Simurosertib] (10 µM),0
18,CC1C(=O)OC2C(O)C34C5OC(=O)C3(OC3OC(=O)C(O)C34C(C(C)(C)C)C5O)C12O (stereo not given) [Ginkgolide C] (10 µM),0
19,O=C(/C=C/c1ccccc1)OC[C@H]1O[C@@H](O[C@@H]2OC=C[C@H]3[C@H](O)[C@@H]4O[C@]4(CO)[C@@H]23)[C@H](O)[C@@H](O)[C@@H]1O [Picroside I] (10 µM),0
20,CC1=C[C@]23C(=O)[C@@H](C=C(CO)[C@@H](O)[C@]2(O)[C@H]1O)[C@H]1[C@@H](C[C@H]3C)C1(C)C [Ingenol] (10 µM),0
21,O=Cc1cn(Cc2ccc(Cl)cc2)c2ccccc12 [Oncrasin-1] (10 µM),0
22,C[C@@H]1CC[C@H]2[C@@H](C)C(=O)O[C@@H]3O[C@@]4(C)CC[C@@H]1[C@]32OO4 [Artemisinin] (10 µM),0
